Assay results from the supplement of paper PMC7661543.
Differences between knockout arms are mostly noise.

Test system: MDA-MB-231
Assay: relative cell number vs DMSO control (72 h) (% of DMSO); higher = less growth inhibition (more cells)
Description: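 QMAP-Seq: a pool of 5 breast cancer cell lines (ZR-75-1, SKBR3, HCC-38, MDA-MB-231, BT-20), each carrying 12 doxycycline-inducible Cas9 sgRNA perturbations (11 knockouts plus non-targeting sgNT), was treated with compounds for 72 h at four 10-fold doses (10 nM-10 uM or 1 nM-1 uM range). Barcodes were amplified and sequenced, and cell number was interpolated from 293T spike-in standard curves. The result is expressed as % of the median of DMSO wells. Two biological replicates.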

C[C@@H](Nc1cc(F)cc(F)c1)c1cc(C(=O)N(C)C)cc2c(=O)cc(N3CCOCC3)oc12 [AZD8186]
Conditions | relative cell number
sgRNA knockout: sgATF3, 10 nM | 104
sgRNA knockout: sgATF3, 100 nM | 119
sgRNA knockout: sgATF3, 1000 nM | 102
sgRNA knockout: sgATF3, 10000 nM | 101
sgRNA knockout: sgATF4, 10 nM | 123
sgRNA knockout: sgATF4, 100 nM | 157
sgRNA knockout: sgATF4, 1000 nM | 108
sgRNA knockout: sgATF4, 10000 nM | 111
sgRNA knockout: sgATF6, 10 nM | 88.3
sgRNA knockout: sgATF6, 100 nM | 121
sgRNA knockout: sgATF6, 1000 nM | 87
sgRNA knockout: sgATF6, 10000 nM | 83
sgRNA knockout: sgATG7, 10 nM | 110
sgRNA knockout: sgATG7, 100 nM | 109
sgRNA knockout: sgATG7, 1000 nM | 102
sgRNA knockout: sgATG7, 10000 nM | 84.4
sgRNA knockout: sgERN1, 10 nM | 114
sgRNA knockout: sgERN1, 100 nM | 114
sgRNA knockout: sgERN1, 1000 nM | 90.4
sgRNA knockout: sgERN1, 10000 nM | 77.6
sgRNA knockout: sgHSF1, 10 nM | 96.5
sgRNA knockout: sgHSF1, 100 nM | 93.2
sgRNA knockout: sgHSF1, 1000 nM | 104
sgRNA knockout: sgHSF1, 10000 nM | 80.6
sgRNA knockout: sgHSF2, 10 nM | 126
sgRNA knockout: sgHSF2, 100 nM | 121
sgRNA knockout: sgHSF2, 1000 nM | 103
sgRNA knockout: sgHSF2, 10000 nM | 93.1
sgRNA knockout: sgKEAP1, 10 nM | 97.9
sgRNA knockout: sgKEAP1, 100 nM | 114
sgRNA knockout: sgKEAP1, 1000 nM | 101
sgRNA knockout: sgKEAP1, 10000 nM | 98.5
sgRNA knockout: sgNFE2L2, 10 nM | 116
sgRNA knockout: sgNFE2L2, 100 nM | 118
sgRNA knockout: sgNFE2L2, 1000 nM | 103
sgRNA knockout: sgNFE2L2, 10000 nM | 97
sgRNA knockout: sgSLC35F2, 10 nM | 107
sgRNA knockout: sgSLC35F2, 100 nM | 125
sgRNA knockout: sgSLC35F2, 1000 nM | 93
sgRNA knockout: sgSLC35F2, 10000 nM | 100
sgRNA knockout: sgXBP1, 10 nM | 104
sgRNA knockout: sgXBP1, 100 nM | 125
sgRNA knockout: sgXBP1, 1000 nM | 89.5
sgRNA knockout: sgXBP1, 10000 nM | 94.9

CC(C)C[C@H](NC(=O)[C@H](Cc1ccccc1)NC(=O)c1cnccn1)B(O)O [Bortezomib]
Conditions | relative cell number
sgRNA knockout: sgATF3, 1 nM | 93.1
sgRNA knockout: sgATF3, 10 nM | 70.2
sgRNA knockout: sgATF3, 100 nM | 9.53
sgRNA knockout: sgATF3, 1000 nM | 12.1
sgRNA knockout: sgATF4, 1 nM | 62.8
sgRNA knockout: sgATF4, 10 nM | 51.4
sgRNA knockout: sgATF4, 100 nM | 7.86
sgRNA knockout: sgATF4, 1000 nM | 7.74
sgRNA knockout: sgATF6, 1 nM | 96.2
sgRNA knockout: sgATF6, 10 nM | 51.9
sgRNA knockout: sgATF6, 100 nM | 9.74
sgRNA knockout: sgATF6, 1000 nM | 8.41
sgRNA knockout: sgATG7, 1 nM | 92.5
sgRNA knockout: sgATG7, 10 nM | 53.7
sgRNA knockout: sgATG7, 100 nM | 6.21
sgRNA knockout: sgATG7, 1000 nM | 9.84
sgRNA knockout: sgERN1, 1 nM | 87
sgRNA knockout: sgERN1, 10 nM | 46.4
sgRNA knockout: sgERN1, 100 nM | 7.8
sgRNA knockout: sgERN1, 1000 nM | 10.8
sgRNA knockout: sgHSF1, 1 nM | 85.216
sgRNA knockout: sgHSF1, 10 nM | 36.6
sgRNA knockout: sgHSF1, 100 nM | 11.2
sgRNA knockout: sgHSF1, 1000 nM | 12.2
sgRNA knockout: sgHSF2, 1 nM | 91.5
sgRNA knockout: sgHSF2, 10 nM | 49.4
sgRNA knockout: sgHSF2, 100 nM | 7.2
sgRNA knockout: sgHSF2, 1000 nM | 14.8
sgRNA knockout: sgKEAP1, 1 nM | 84.7
sgRNA knockout: sgKEAP1, 10 nM | 52.2
sgRNA knockout: sgKEAP1, 100 nM | 7.03
sgRNA knockout: sgKEAP1, 1000 nM | 8.25
sgRNA knockout: sgNFE2L2, 1 nM | 114
sgRNA knockout: sgNFE2L2, 10 nM | 48.3
sgRNA knockout: sgNFE2L2, 100 nM | 7.52
sgRNA knockout: sgNFE2L2, 1000 nM | 6.38
sgRNA knockout: sgSLC35F2, 1 nM | 85.3
sgRNA knockout: sgSLC35F2, 10 nM | 62.9
sgRNA knockout: sgSLC35F2, 100 nM | 11.1
sgRNA knockout: sgSLC35F2, 1000 nM | 6.25
sgRNA knockout: sgXBP1, 1 nM | 95.9
sgRNA knockout: sgXBP1, 10 nM | 48
sgRNA knockout: sgXBP1, 100 nM | 9.56
sgRNA knockout: sgXBP1, 1000 nM | 10.1

CC[C@H](Nc1ncnc2[nH]cnc12)c1nc2cccc(F)c2c(=O)n1-c1ccccc1 [CAL101]
Conditions | relative cell number
sgRNA knockout: sgATF3, 10 nM | 91.7
sgRNA knockout: sgATF3, 100 nM | 95.2
sgRNA knockout: sgATF3, 1000 nM | 112
sgRNA knockout: sgATF3, 10000 nM | 92.9
sgRNA knockout: sgATF4, 10 nM | 92.1
sgRNA knockout: sgATF4, 100 nM | 111
sgRNA knockout: sgATF4, 1000 nM | 99.3
sgRNA knockout: sgATF4, 10000 nM | 115
sgRNA knockout: sgATF6, 10 nM | 84
sgRNA knockout: sgATF6, 100 nM | 111
sgRNA knockout: sgATF6, 1000 nM | 99.09
sgRNA knockout: sgATF6, 10000 nM | 99.4
sgRNA knockout: sgATG7, 10 nM | 88.8
sgRNA knockout: sgATG7, 100 nM | 81.5
sgRNA knockout: sgATG7, 1000 nM | 94.5
sgRNA knockout: sgATG7, 10000 nM | 89.6
sgRNA knockout: sgERN1, 10 nM | 114
sgRNA knockout: sgERN1, 100 nM | 109
sgRNA knockout: sgERN1, 1000 nM | 107
sgRNA knockout: sgERN1, 10000 nM | 96.5
sgRNA knockout: sgHSF1, 10 nM | 84.9
sgRNA knockout: sgHSF1, 100 nM | 86.2
sgRNA knockout: sgHSF1, 1000 nM | 112.3
sgRNA knockout: sgHSF1, 10000 nM | 98.6
sgRNA knockout: sgHSF2, 10 nM | 117
sgRNA knockout: sgHSF2, 100 nM | 89.3
sgRNA knockout: sgHSF2, 1000 nM | 76.8
sgRNA knockout: sgHSF2, 10000 nM | 105
sgRNA knockout: sgKEAP1, 10 nM | 96
sgRNA knockout: sgKEAP1, 100 nM | 71.2
sgRNA knockout: sgKEAP1, 1000 nM | 99
sgRNA knockout: sgKEAP1, 10000 nM | 98.9
sgRNA knockout: sgNFE2L2, 10 nM | 75.7
sgRNA knockout: sgNFE2L2, 100 nM | 94
sgRNA knockout: sgNFE2L2, 1000 nM | 95.4
sgRNA knockout: sgNFE2L2, 10000 nM | 98
sgRNA knockout: sgSLC35F2, 10 nM | 102
sgRNA knockout: sgSLC35F2, 100 nM | 81.6
sgRNA knockout: sgSLC35F2, 1000 nM | 97.8
sgRNA knockout: sgSLC35F2, 10000 nM | 108
sgRNA knockout: sgXBP1, 10 nM | 103
sgRNA knockout: sgXBP1, 100 nM | 87.3
sgRNA knockout: sgXBP1, 1000 nM | 91.5
sgRNA knockout: sgXBP1, 10000 nM | 102
